In article PMC5006505:
No constants are given. Whether binding was seen depends on the method and setting. Binding seen in cells or lysates may run through a third protein. A yes stands for co-enrichment or nearness to the bait. Other partners may have been found.

The chains behind the UniProt entries cited, without tags or fusion partners.
UniProt Q8N5X7: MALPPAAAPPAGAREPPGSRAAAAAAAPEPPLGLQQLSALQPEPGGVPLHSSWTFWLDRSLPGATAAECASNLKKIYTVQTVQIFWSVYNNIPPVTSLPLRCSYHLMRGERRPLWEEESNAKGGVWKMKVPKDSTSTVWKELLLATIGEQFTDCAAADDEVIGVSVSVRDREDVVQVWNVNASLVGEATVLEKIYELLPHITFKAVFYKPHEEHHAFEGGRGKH
UniProt O43432: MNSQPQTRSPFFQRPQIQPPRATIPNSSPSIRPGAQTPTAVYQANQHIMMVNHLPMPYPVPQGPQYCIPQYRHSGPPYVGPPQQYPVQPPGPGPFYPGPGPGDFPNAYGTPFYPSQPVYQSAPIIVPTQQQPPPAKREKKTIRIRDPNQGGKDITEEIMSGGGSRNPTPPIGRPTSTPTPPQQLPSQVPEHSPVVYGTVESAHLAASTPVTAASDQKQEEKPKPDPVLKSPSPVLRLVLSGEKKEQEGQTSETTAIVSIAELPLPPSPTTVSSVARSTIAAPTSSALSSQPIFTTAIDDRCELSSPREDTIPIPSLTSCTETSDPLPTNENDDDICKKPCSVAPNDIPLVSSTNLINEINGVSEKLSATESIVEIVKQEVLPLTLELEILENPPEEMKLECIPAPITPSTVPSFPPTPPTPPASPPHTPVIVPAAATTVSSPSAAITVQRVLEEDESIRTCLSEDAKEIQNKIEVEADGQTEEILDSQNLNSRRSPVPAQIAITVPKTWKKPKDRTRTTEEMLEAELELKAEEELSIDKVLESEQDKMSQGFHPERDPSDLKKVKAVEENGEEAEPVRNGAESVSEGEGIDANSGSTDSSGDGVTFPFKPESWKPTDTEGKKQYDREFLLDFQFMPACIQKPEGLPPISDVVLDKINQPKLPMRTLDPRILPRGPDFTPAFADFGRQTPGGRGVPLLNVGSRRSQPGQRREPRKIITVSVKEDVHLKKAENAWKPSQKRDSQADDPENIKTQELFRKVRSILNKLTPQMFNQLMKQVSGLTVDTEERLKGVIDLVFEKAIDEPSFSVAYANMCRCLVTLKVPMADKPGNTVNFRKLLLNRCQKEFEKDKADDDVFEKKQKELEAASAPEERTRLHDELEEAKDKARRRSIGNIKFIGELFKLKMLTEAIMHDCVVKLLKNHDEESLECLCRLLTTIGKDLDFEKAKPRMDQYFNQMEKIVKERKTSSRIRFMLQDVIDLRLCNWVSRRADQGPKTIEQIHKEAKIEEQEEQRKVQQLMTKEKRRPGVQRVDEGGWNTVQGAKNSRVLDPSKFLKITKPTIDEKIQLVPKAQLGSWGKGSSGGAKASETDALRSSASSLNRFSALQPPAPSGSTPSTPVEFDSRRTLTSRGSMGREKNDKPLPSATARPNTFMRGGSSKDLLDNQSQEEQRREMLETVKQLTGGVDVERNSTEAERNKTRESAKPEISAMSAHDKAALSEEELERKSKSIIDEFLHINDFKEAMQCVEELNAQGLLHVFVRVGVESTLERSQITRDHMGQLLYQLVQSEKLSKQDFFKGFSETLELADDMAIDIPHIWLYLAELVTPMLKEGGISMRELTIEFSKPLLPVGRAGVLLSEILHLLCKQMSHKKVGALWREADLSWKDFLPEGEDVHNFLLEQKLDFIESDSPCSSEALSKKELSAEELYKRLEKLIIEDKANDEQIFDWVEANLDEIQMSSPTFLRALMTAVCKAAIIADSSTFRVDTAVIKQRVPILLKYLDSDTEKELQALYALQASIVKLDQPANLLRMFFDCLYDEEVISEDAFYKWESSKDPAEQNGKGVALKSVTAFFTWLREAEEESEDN

Molecular target: GFP-eIF4E3_A (human) (UniProt Q8N5X7)
Experiment: affinity purification with mass spectrometry; GFP-Trap_A beads on lysates of transiently transfected HEK293 cells producing GFP-eIF4E3_A or GFP-eIF4E3_B; 12 % SDS-PAGE, Coomassie-stained bands or gel areas excised, MALDI TOF/TOF

binding: binds
Substance: eIF4G protein isoform 3 (eIF4G3) (from UniProt O43432 1-1585)
